Results of single-concentration screens

Amino acid sequences for entries named in this document (tags omitted). Residues count along the entry.
UniProt P9WNZ1, whole entry: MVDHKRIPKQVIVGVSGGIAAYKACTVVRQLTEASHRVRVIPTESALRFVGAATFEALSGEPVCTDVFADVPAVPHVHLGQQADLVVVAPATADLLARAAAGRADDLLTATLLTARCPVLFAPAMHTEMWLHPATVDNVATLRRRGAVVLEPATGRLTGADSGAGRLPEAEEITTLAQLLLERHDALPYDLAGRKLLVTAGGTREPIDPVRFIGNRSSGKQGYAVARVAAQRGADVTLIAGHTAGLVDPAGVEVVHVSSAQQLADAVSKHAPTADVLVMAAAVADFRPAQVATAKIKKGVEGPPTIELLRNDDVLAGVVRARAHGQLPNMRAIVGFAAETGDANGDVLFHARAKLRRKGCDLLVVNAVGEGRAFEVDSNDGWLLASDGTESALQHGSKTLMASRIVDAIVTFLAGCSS
UniProt Q8IDJ8, 1-583: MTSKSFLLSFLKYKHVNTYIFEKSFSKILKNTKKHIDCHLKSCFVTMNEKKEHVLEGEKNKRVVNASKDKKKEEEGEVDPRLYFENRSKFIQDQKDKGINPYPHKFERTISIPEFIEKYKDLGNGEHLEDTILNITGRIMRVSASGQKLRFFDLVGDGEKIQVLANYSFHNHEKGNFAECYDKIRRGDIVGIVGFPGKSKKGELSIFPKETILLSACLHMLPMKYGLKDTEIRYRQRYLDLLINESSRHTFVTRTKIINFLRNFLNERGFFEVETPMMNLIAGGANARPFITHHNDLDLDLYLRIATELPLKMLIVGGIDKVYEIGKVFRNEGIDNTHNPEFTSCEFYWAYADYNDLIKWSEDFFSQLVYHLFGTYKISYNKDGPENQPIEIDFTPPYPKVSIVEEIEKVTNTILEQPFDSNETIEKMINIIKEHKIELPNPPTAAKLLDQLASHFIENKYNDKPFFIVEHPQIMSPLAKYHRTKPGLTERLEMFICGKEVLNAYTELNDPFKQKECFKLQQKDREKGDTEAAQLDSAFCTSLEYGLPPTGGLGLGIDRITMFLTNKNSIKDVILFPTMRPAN
UniProt A4I591, 1-473: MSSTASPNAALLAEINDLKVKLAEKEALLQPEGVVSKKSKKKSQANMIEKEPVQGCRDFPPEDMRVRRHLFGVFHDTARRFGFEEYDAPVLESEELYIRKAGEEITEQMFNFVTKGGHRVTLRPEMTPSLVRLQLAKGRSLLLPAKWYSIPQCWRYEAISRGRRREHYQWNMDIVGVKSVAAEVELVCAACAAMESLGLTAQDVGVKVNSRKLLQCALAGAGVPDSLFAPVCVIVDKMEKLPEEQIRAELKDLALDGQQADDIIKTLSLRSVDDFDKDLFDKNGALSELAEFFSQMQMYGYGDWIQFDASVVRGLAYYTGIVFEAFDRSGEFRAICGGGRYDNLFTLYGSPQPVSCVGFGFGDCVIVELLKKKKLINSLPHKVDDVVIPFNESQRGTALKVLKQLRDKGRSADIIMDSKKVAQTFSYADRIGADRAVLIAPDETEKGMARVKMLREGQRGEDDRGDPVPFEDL

A: 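Coenzyme A biosynthesis protein CoaBC, Mycobacterium tuberculosis (UniProt P9WNZ1). Enzyme assay of CoaBC with a phosphate dye (Biomol Green) read at 650 nm. Concentration: 30 µM. Direction is inferred from only a few compounds that gave an IC50; most scored high, so higher reads as stronger inhibition. Most strong results did not repeat in a second test. Size under these conditions: about 67,000 compounds, about 40 of them at 50% or above in at least one test.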
B: 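Lysine-tRNA ligase, Plasmodium falciparum 3D7 (UniProt Q8IDJ8). Enzyme assay of the cytosolic lysyl-tRNA synthetase in 384-well plates, read by luminescence. Compounds at 30 µM. Higher reads as stronger inhibition, judged from the few compounds that gave an IC50. About 69,000 compounds were tested under these conditions; 0.071% (about 49) showed 50% or more at least once.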
C: 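Histidine-tRNA ligase, Leishmania infantum (UniProt A4I591). Enzyme assay of histidyl-tRNA synthetase; the read-out is not stated. Compounds at 30 µM. The record gives no direction; compounds that gave an IC50 in retests scored well above the rest, so higher reads as stronger inhibition. The assay is labelled LdHisRS but filed under L. infantum. Of about 69,000 compounds tested this way, about 410 (0.6%) reached 50% or more in at least one test.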

The filed quantity is “Percent Effect” (%).
The record does not define 0% and 100%; most values in the screen are far below 50% and negative numbers occur (in some assays of this library far below -100).
Compounds were drawn at random from those tested, without regard to their results.

{"smiles": "COCc1nc(CNC2CCC3(CCNCC3)CC2)no1", "A": -11.51, "B": 11.98, "C": 13.89}
{"smiles": "COCCOCC(=O)N1C[C@@H]2CC[C@H](Oc3ccccc3F)[C@@H]2C1", "A": 12.17, "B": -3.126, "C": 20}
{"smiles": "COc1cccc(-c2noc(-c3ccc(NCC(C)C)nc3)n2)c1OC", "A": 3.085, "B": 3.07, "C": 8.333}
{"smiles": "O=C(c1cccnc1-n1cccn1)N1CCN(CC2CC2)CC1", "A": -1.066, "B": 1.48, "C": 21.15}
{"smiles": "CCn1cc(C(=O)NC2CCN(S(C)(=O)=O)CC2)c2ccccc21", "A": 8.811, "B": 3.012, "C": 1.887}
{"smiles": "Cc1nc(C2(NC(=O)NCc3cc(C#N)ccc3F)CCCC2)no1", "B": -2.687, "C": 17.14}
{"smiles": "CCOC(=O)CNC(=O)NCc1cccn1Cc1cccc(C)c1", "A": -0.7595, "B": 7.895, "C": 7.895}
{"smiles": "CC(C)c1noc(-c2ccnc(-n3cnc(C(=O)O)c3)c2)n1", "A": -6.604, "B": 4.883, "C": 9.89}
{"smiles": "CN(C)C[C@@H]1CN(C2CCN(c3ccc(Cl)cc3)CC2)C[C@@H]1CO", "A": -66.99, "B": 9.794, "C": 21.69}
{"smiles": "CC(=O)NCCNC(=O)c1cc(C)ccc1SC1CCCC1", "A": 0.7576, "B": 0.9941, "C": 13.16}
{"smiles": "CCc1nc2n(n1)CC(NCCC(=O)Nc1cc(C)on1)CC2", "stereo": "centres undefined", "A": 0.2551, "B": 0.5404, "C": 10.91}
{"smiles": "CCCN1Cc2ccccc2CC1C(=O)NC", "stereo": "centres undefined", "A": -2.811, "B": -0.7221, "C": 7.463}
{"smiles": "O=C(c1cnc(-c2cccs2)s1)N1CCCN2CCCC2C1", "stereo": "centres undefined", "A": 2.966, "B": 10.33, "C": 23.81}
{"smiles": "CCN(Cc1cnn(C)c1)C[C@H]1CC[C@@H](Cc2cccc(CN)c2)O1", "A": -16.52, "B": 1.848, "C": 6.25}
{"smiles": "CC(C)Cc1cc(CNC(=O)C2CCCN(C(=O)N(C)C)C2)no1", "stereo": "centres undefined", "A": -3.023, "B": 7.319, "C": 16.13}
{"smiles": "COc1ccc(OC)c(C2CCN(C(=O)C3CCS(=O)(=O)CC3)C2)c1", "stereo": "centres undefined", "A": 1.613, "B": 4.124, "C": 13.16}
{"smiles": "Cc1ccnc(C(NC(=O)c2sc(C)nc2C)C2CC2)n1", "stereo": "centres undefined", "A": 8.824, "B": -1.58, "C": 16.24}
{"smiles": "CC(=O)Nc1nc(C(=O)NC(C)c2ccncc2)cs1", "stereo": "centres undefined", "A": -65.87, "B": 10.97, "C": 8.264}
{"smiles": "Cc1cnn(CCC(=O)N2CCCN(c3ccccc3C#N)CC2)c1", "A": -5.59, "B": -0.4133, "C": 10.53}
{"smiles": "CC1CN(C)CCN1C(=O)c1ccn(-c2ccc(F)cc2)n1", "stereo": "centres undefined", "A": 2.452, "B": 1.138, "C": 6.957}

2 of the entries, repeated:

SMILES,A,B,C
CC(=O)Nc1nc(C(=O)NC(C)c2ccncc2)cs1 (centres undefined),-65.87%,10.97%,8.264%
COc1ccc(OC)c(C2CCN(C(=O)C3CCS(=O)(=O)CC3)C2)c1 (centres undefined),1.613%,4.124%,13.16%

Measurements from “University of Dundee, Small-Polar-MMV Screening Library” (2021), ChEMBL document CHEMBL3988442.